No constants are given. Whether binding was seen depends on the method and setting. Binding calls can cover weak binding; strength is not graded here.
Molecular target: OsHLH61 (Helix-loop-helix 61), yeast two-hybrid fusion (rice (Oryza sativa)) (UniProt B7F971)
Test: two-hybrid; Gal4 system (pGBKT7 / pGADT7); library screen with pGBKT7-OsHLH61 in AH109 and pairwise tests; growth on SD-LTHA (without Leu, Trp, His, Ade)

binding: binds
Substance: OsbHLH96, yeast two-hybrid fusion (from UniProt B7F0D7)

— article PMC6386760
